From patent publication EP0089900B1, “New N-((2-oxo-1-pyrrolidinyl)acetyl)piperazines, the methods of producing such new compounds and their salts as well as pharmaceutical preparations for therapeutic use containing these compounds or salts” (PRODES S.A., priority 1982, dated 1983)
For at least one compound, name, drawing or mass did not settle the structure.

System: mouse
Experiment: Protection against lethality: quick decapitation, gasping time
Type: in vivo
Conditions: gasping time after decapitation of mouse; dose 100 mg/kg

With `O=C1NC(=O)C(c2ccccc2)(c2ccccc2)N1` [Diphenylhydantoine, reference compound] the gasping was “Very Active”.
